Target: T1, PeaTAR1B (PeaTAR1B-HA) (Periplaneta americana, UniProt A0A239QQ38)
T1 construct: stably expressed in HEK 293 flpTM cells
T1 sequence (A0A239QQ38 1-481): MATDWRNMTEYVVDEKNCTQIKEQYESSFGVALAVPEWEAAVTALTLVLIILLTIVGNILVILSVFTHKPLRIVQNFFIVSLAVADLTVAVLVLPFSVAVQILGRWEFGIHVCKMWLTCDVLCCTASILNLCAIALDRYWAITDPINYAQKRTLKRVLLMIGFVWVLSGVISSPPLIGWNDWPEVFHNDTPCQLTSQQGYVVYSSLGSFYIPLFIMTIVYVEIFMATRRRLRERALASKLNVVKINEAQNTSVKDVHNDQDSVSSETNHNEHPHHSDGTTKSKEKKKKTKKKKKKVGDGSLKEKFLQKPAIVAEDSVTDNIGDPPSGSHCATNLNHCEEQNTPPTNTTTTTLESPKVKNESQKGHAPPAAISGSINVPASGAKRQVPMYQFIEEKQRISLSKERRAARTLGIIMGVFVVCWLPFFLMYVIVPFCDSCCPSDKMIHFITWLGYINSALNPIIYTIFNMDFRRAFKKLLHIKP
Experiment: block of tyramine-induced attenuation of NKH 477-stimulated cAMP, CNG channel / Fluo-4 fluorescence in HEK […] flpTM cells
Assay type: cell-based

IC50: 868 nM
Compound: CN1CCN2c3ccccc3Cc3ccccc3C2C1 (stereo not shown) [mianserin]

Reference: article PMC5713249, “PeaTAR1B: Characterization of a Second Type 1 Tyramine Receptor of the American Cockroach, Periplaneta americana” (International Journal of Molecular Sciences, 2017)
